PubChem BioAssay AID504774 – Drosophila RNAi Screening Center – 2011

Screen: 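Fly genes whose loss alters survival after alkylation damage to DNA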 (primary screen)
Cell system: Drosophila Kc167 cells
Reagent: long dsRNA against Drosophila genes, about 0.25 µg dsRNA per well
Time to read-out: about 6 days: 3 days knock-down, then 3 days with or without MMS
Challenge: methyl methanesulphonate 0.004% (w/v) for 3 days after knock-down
Read-out: 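ATP-dependent luminescence as a measure of live cells in MMS-exposed wells, quantile normalised within each plate, with replicate values also given as a mean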
Scale: mean viability with MMS and viability with MMS: higher = more surviving cells after MMS
The deposit covers about 23,000 reagents; below is an unselected part of those that have a named target and a result. 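Values are quantile-normalised luminescence on an arbitrary scale; higher means more cells surviving MMS.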 Names joined by + are all predicted targets of the reagent.

predicted target | dsRNA | mean viability with MMS | viability with MMS, replicate 1 | viability with MMS, replicate 2
Hs3st-B | DRSC20067 | 3.57e6 | 4.05e6 | 4.03e6
CG10232 | DRSC14218 | 3.63e6 | 4.17e6 | 4.07e6
mag | DRSC11787 | 3.52e6 | 3.93e6 | 4.05e6
CG14757 | DRSC06492 | 3.66e6 | 4.06e6 | 4.16e6
CG15047 | DRSC19623 | 3.04e6 | 3.51e6 | 3.51e6
CG15047 | DRSC21443 | 3.45e6 | 3.98e6 | 3.90e6
Daao2 | DRSC02135 | 3.35e6 | 3.79e6 | 3.69e6
CG3630 | DRSC18499 | 3.61e6 | 4.21e6 | 3.98e6
xmas-1 (retired record) | DRSC20386 | 3.42e6 | 3.82e6 | 3.90e6
CG11703 | DRSC14356 | 3.68e6 | 4.15e6 | 4.14e6
Ilp1 | DRSC10174 | 3.68e6 | 4.17e6 | 4.12e6
Blos1 | DRSC05970 | 3.63e6 | 3.97e6 | 4.04e6
Mfe2 | DRSC19869 | 3.41e6 | 3.97e6 | 3.55e6
CG9993 | DRSC04599 | 3.54e6 | 4.05e6 | 3.97e6
CG7707 | DRSC10903 | 3.41e6 | 3.84e6 | 3.83e6
sle | DRSC14557 | 3.59e6 | 4.13e6 | 4.05e6
dysc | DRSC10273 | 3.40e6 | 4.01e6 | 4.00e6
dysc | DRSC11040 | 3.37e6 | 3.79e6 | 3.79e6
dysc | DRSC22334 | 3.52e6 | 3.99e6 | 3.99e6
dysc | DRSC22824 | 3.38e6 | 3.88e6 | 3.89e6
rad (retired record) | DRSC19687 | 3.64e6 | 4.15e6 | 4.08e6
rad (retired record) | DRSC22865 | 3.36e6 | 3.90e6 | 3.84e6
mRRF2 | DRSC16143 | 3.42e6 | 3.93e6 | 3.78e6
dbo | DRSC11339 | 3.69e6 | 4.14e6 | 4.17e6
Fcp1 | DRSC04121 | 3.55e6 | 4.00e6 | 4.01e6
CG33635 | DRSC00006 | 3.49e6 | 4.06e6 | 3.87e6
Vajk4 | DRSC06589 | 3.64e6 | 4.19e6 | 4.09e6
Vajk4 | DRSC07003 | 3.54e6 | 4.07e6 | 3.96e6
CG13786 | DRSC02289 | 3.51e6 | 3.94e6 | 4.01e6
Dus2 | DRSC19591 | 3.64e6 | 4.08e6 | 4.39e6
Dcp-1 | DRSC04609 | 3.82e6 | 4.22e6 | 4.37e6
CG13144 | DRSC02241 | 3.62e6 | 4.00e6 | 4.22e6
CG15198 | DRSC19645 | 3.54e6 | 3.92e6 | 4.09e6
CG11563 | DRSC14327 | 3.65e6 | 4.09e6 | 4.19e6
CG14647 | DRSC12233 | 3.57e6 | 4.07e6 | 4.02e6
CG14647 | DRSC22497 | 3.37e6 | 3.90e6 | 3.87e6
Gr22e | DRSC20912 | 2.07e6 | 4.04e6 | 4.04e6
ND-MNLL | DRSC18159 | 3.60e6 | 4.10e6 | 4.06e6
Or19a | DRSC20684 | 3.53e6 | 3.95e6 | 4.07e6
CG14961 | DRSC08420 | 3.52e6 | 4.03e6 | 3.94e6
CG8149 | DRSC16391 | 3.63e6 | 4.09e6 | 4.08e6
hpRNA:CR18854 | DRSC02702 | 3.49e6 | 3.97e6 | 3.94e6
CG17002 | DRSC04978 | 3.61e6 | 4.05e6 | 3.94e6

Next part, starting with the last 3 of the part before.
predicted target | dsRNA | mean viability with MMS | viability with MMS, replicate 1 | viability with MMS, replicate 2
CG8149 | DRSC16391 | 3.63e6 | 4.09e6 | 4.08e6
hpRNA:CR18854 | DRSC02702 | 3.49e6 | 3.97e6 | 3.94e6
CG17002 | DRSC04978 | 3.61e6 | 4.05e6 | 3.94e6
r | DRSC19813 | 3.59e6 | 4.15e6 | 3.97e6
r | DRSC19814 | 3.55e6 | 4.04e6 | 4.03e6
laza | DRSC11661 | 3.66e6 | 4.08e6 | 4.19e6
laza | DRSC23330 | 3.62e6 | 4.17e6 | 4.05e6
CG18596 | DRSC15355 | 3.44e6 | 3.95e6 | 3.86e6
eIF3d1 | DRSC16938 | 3.05e6 | 3.64e6 | 3.61e6
Alg11 | DRSC11647 | 3.49e6 | 3.90e6 | 4.00e6
flap | DRSC03918 | 3.41e6 | 3.85e6 | 3.91e6
flap | DRSC04087 | 3.48e6 | 3.97e6 | 3.77e6
CG31493 | DRSC12583 | 3.72e6 | 4.21e6 | 4.24e6
polyph | DRSC06254 | 3.38e6 | 3.79e6 | 3.87e6
rdo | DRSC02452 | 3.33e6 | 3.68e6 | 3.83e6
Ste:CG33238 + Ste:CG33241 + Ste:CG33236 + 11 more | DRSC19004 | 3.57e6 | 4.11e6 | 3.97e6
Ste:CG33238 + Ste:CG33241 + Ste:CG33236 + 11 more | DRSC21260 | 3.52e6 | 3.98e6 | 4.01e6
CG15765 | DRSC18071 | 3.37e6 | 3.54e6 | 3.88e6
CG15765 | DRSC23026 | 3.67e6 | 4.08e6 | 4.24e6
betaggt-I | DRSC03494 | 3.51e6 | 3.99e6 | 3.98e6
dap | DRSC07601 | 3.80e6 | 4.30e6 | 4.27e6
Kyat | DRSC16147 | 3.47e6 | 3.96e6 | 3.93e6
CG32376 | DRSC22754 | 3.49e6 | 3.94e6 | 4.00e6
CG30088 | DRSC21764 | 3.38e6 | 3.80e6 | 3.94e6
CG5439 | DRSC02861 | 3.67e6 | 4.20e6 | 4.17e6
Nipped-B | DRSC07815 | 3.57e6 | 4.15e6 | 3.93e6
CG14082 | DRSC10086 | 3.76e6 | 4.23e6 | 4.17e6
CG30148 | DRSC06391 | 1.93e6 | 4.11e6 | –
CG12507 | DRSC19463 | 3.49e6 | 3.98e6 | 3.91e6
Cp16 | DRSC11119 | 3.58e6 | 4.08e6 | 4.05e6
CAHbeta | DRSC14449 | 3.53e6 | 4.05e6 | 3.95e6
Dpm1 | DRSC02018 | 3.51e6 | 4.03e6 | 3.92e6
ND-PDSW | DRSC00715 | 3.60e6 | 4.16e6 | 4.02e6
Drsl4 | DRSC08034 | 3.56e6 | 4.04e6 | 4.03e6
CG2983 | DRSC00558 | 3.38e6 | 3.76e6 | 3.83e6
CG13135 | DRSC02232 | 3.53e6 | 4.03e6 | 3.99e6
Pif2 | DRSC12525 | 3.62e6 | 4.08e6 | 4.11e6
Syp | DRSC13444 | 3.40e6 | 3.92e6 | 3.75e6
Syp | DRSC15286 | 3.64e6 | 4.07e6 | 4.14e6
PKD | DRSC16200 | 3.55e6 | 3.85e6 | 4.20e6
Ms | DRSC16041 | 3.56e6 | 3.99e6 | 4.10e6
CNT2 | DRSC07073 | 3.35e6 | 3.65e6 | 3.91e6
Gr5a | DRSC18085 | 3.61e6 | 4.08e6 | 4.10e6
CG9394 | DRSC04550 | 3.31e6 | 3.81e6 | 3.67e6
CG9213 | DRSC20170 | 3.50e6 | 3.97e6 | 3.94e6
CG18530 | DRSC15341 | 3.60e6 | 4.08e6 | 4.05e6
kek5 | DRSC19438 | 3.92e6 | 4.55e6 | 4.23e6
